Results taken from patent publication US9738657B2, “Highly efficient polarizing agents for dynamic nuclear polarization” (Bruker Biospin S.A.S., priority 2013, dated 2017).

Experiments:
[1] = Polarization build-up time Tpol, saturation recovery with continuous microwave irradiation; settings: 97 K, 8 kHz MAS, 10 mM biradical, 0.25 M 13C-15N Proline in glycerol-d8/D2O/H2O (60/30/10); for 263 GHz Tpol (polarization build-up time): 9.4 T; for 395 GHz Tpol (polarization build-up time): 14.1 T
[2] = 1H DNP signal enhancement, 1H-13C cross polarization with and without microwave irradiation; settings: 97 K, 8 kHz MAS, 10 mM biradical, 0.25 M 13C-15N Proline in glycerol-d8/D2O/H2O (60/30/10); for 263 GHz DNP ε (1H DNP signal enhancement): 9.4 T; for 395 GHz DNP ε (1H DNP signal enhancement): 14.1 T

4,4-ureylene-di-(2,2,6,6-tetramethylpiperidinyloxyl) [bTUrea, reference compound]
263 GHz Tpol (polarization build-up time) [1]: 16.5 s
263 GHz DNP ε (1H DNP signal enhancement) [2]: 62

[O]N1C2(CCOCC2)CC(NC(=O)NC2CC3(CCOCC3)N([O])C3(CCOCC3)C2)CC12CCOCC2 (stereo not shown) [Compound 56, (15-{[(7-Oxyl-3,11-dioxa-7-azadispiro[5.1.5.3]hexadec-15-yl)carbamoyl]amino}-[3,11-dioxa-7-azadispiro[5.1.5.3]hexadec-7-yl])oxidanyl]
263 GHz Tpol (polarization build-up time) [1]: 5.7 s
395 GHz Tpol (polarization build-up time) [1]: 8.7 s
263 GHz DNP ε (1H DNP signal enhancement) [2]: 207
395 GHz DNP ε (1H DNP signal enhancement) [2]: 128

[O]N1C2(CCOCC2)CC(N2CC(O)CN(C3CC4(CCOCC4)N([O])C4(CCOCC4)C3)C2=O)CC12CCOCC2 (stereo not shown) [Compound 69, 5-Hydroxy-1,3-bis(7-oxyl-3,11-dioxa-7-azadispiro[5.1.5.3]-hexadec-15-yl)tetrahydropyrimidin-2(1H)-one]
263 GHz DNP ε (1H DNP signal enhancement) [2]: 290
395 GHz DNP ε (1H DNP signal enhancement) [2]: 160

COCCOCCOCCOCCOC1CN(C2CC3(CCOCC3)N([O])C3(CCOCC3)C2)C(=O)N(C2CC3(CCOCC3)N([O])C3(CCOCC3)C2)C1 (stereo not shown) [Compound 70, 1,3-Bis(7-oxyl-3,11-dioxa-7-azadispiro[5.1.5.3]hexadec-15-yl)-5-(2,5,8,11-tetraoxatridecan-13-yloxy)tetrahydropyrimidin-2(1H)-one]
263 GHz DNP ε (1H DNP signal enhancement) [2]: 278
395 GHz DNP ε (1H DNP signal enhancement) [2]: 138

O=C(NC1CC2(CCOCC2)N(O)C2(CCOCC2)C1)N(CCOCCO)C1CC2(CCOCC2)N(O)C2(CCOCC2)C1 (stereo not shown) [Compound 71, (15-{[(7-Oxyl-3,11-dioxa-7-azadispiro[5.1.5.3]hexadec-15-yl)carbamoyl][2-(2-hydroxyethoxy)ethyl]amino}-[3,11-dioxa-7-azadispiro[5.1.5.3]hexadec-7-yl])oxidanyl]
263 GHz DNP ε (1H DNP signal enhancement) [2]: 303

(4-{(2,5,8,11-tetraoxatridecan-13-yl)[(1-oxyl-2,2,6,6-tetramethyl piperidin-4-yl)carbamoyl]amino}-2,2,6,6-tetramethylpiperidin-1-yl)oxidanyl [Compound 52]
263 GHz DNP ε (1H DNP signal enhancement) [2]: 120

(4-{[2-(2-methoxyethoxy)ethyl][(1-oxyl-2,2,6,6-tetramethylpiperidin-4-yl)carbamoyl]amino}-2,2,6,6-tetramethylpiperidin-1-yl)oxidanyl [Compound 51]
263 GHz Tpol (polarization build-up time) [1]: 5.6 s
395 GHz Tpol (polarization build-up time) [1]: 7.7 s
263 GHz DNP ε (1H DNP signal enhancement) [2]: 120
395 GHz DNP ε (1H DNP signal enhancement) [2]: 81
